{
  "source": "patent US9465288B2",
  "about": "“Sulfonium salt compound, method for producing the same, and photoacid generator” (DSP GOKYO FOOD & CHEMICAL CO., LTD., priority 2012, dated 2016)",
  "assay": "Ultraviolet-visible absorption spectrum, molecular extinction coefficient at 365 nm",
  "type": "physicochemical",
  "conditions": "1×10^−4 mol/L acetonitrile solution, reference range 50 to 2000",
  "experimental": "A 1×10^−4 mol/L acetonitrile solution of each test compound was prepared, and the molecular extinction coefficient at 365 nm in the ultraviolet-visible absorption spectrum was measured using an ultraviolet-visible spectrophotometer (UV-2400PC, manufactured by SHIMADZU CORPORATION). […] Considering that light would be transmitted to a deep portion of a thick film, the reference range of the molecular extinction coefficient at 365 nm (i-line) was set to 50 to 2000. The sulfonium compounds falling within this range were evaluated as having desirable properties.",
  "note": "Some of these results come from one statement about several compounds together. At least one structure is not confirmed: it was looked up by name or label, or the drawing left a doubt.",
  "data": [
    {"smiles": "COc1ccc2ccc(OC)c([S+](c3ccccc3)c3ccccc3)c2c1.O=S1(=O)[N-]S(=O)(=O)C(F)(F)C(F)(F)C1(F)F", "note": "[C. Ex. 2, 1-(2,7-dimethoxynaphthyl)diphenylsulfonium 1,1,2,2,3,3-hexafluorotrimethylene sulfone imide, reference compound]", "values": [
      {"measurement": "Molecular extinction coefficient (365 nm)", "setting": "listed as Comparative Example 2", "value": "exceeding 2000"}
    ]},
    {"smiles": "CCCCOc1ccc2ccc(OCCCC)c([S+](c3ccccc3)c3ccccc3)c2c1.O=S(=O)([N-]S(=O)(=O)C(F)(F)C(F)(F)C(F)(F)C(F)(F)F)C(F)(F)C(F)(F)C(F)(F)C(F)(F)F", "note": "[C. Ex. 5, 1-(2,7-di-n-butoxynaphthyl)diphenylsulfonium di(1,1,2,2,3,3,4,4,4-nonafluorobutanesulfone)imide, reference compound]", "values": [
      {"measurement": "Molecular extinction coefficient (365 nm)", "setting": "listed as Comparative Example 5", "value": "exceeding 2000"}
    ]},
    {"smiles": "O=S(=O)([N-]S(=O)(=O)C(F)(F)C(F)(F)C(F)(F)C(F)(F)F)C(F)(F)C(F)(F)C(F)(F)C(F)(F)F.c1ccc([S+](c2ccccc2)c2ccccc2)cc1", "note": "[C. Ex. 4, triphenylsulfonium di(1,1,2,2,3,3,4,4,4-nonafluorobutanesulfone)imide, reference compound]", "values": [
      {"measurement": "Molecular extinction coefficient (365 nm)", "setting": "listed as Comparative Example 4", "value": "less than 50"}
    ]},
    {"smiles": "O=S1(=O)[N-]S(=O)(=O)C(F)(F)C(F)(F)C1(F)F.c1ccc([S+](c2ccccc2)c2ccccc2)cc1", "note": "[C. Ex. 1, triphenylsulfonium 1,1,2,2,3,3-hexafluorotrimethylene imide, reference compound]", "values": [
      {"measurement": "Molecular extinction coefficient (365 nm)", "setting": "listed as Comparative Example 1", "value": "less than 50"}
    ]}
  ]
}
